Results as given in article PMC5244668.
Results are given in words; binding and its absence hold for the method and conditions named.

Sequences of proteins named here, by UniProt entry; tags and fusion partners are left off. Residues count along the entry.
UniProt P08575, residues 599-1306: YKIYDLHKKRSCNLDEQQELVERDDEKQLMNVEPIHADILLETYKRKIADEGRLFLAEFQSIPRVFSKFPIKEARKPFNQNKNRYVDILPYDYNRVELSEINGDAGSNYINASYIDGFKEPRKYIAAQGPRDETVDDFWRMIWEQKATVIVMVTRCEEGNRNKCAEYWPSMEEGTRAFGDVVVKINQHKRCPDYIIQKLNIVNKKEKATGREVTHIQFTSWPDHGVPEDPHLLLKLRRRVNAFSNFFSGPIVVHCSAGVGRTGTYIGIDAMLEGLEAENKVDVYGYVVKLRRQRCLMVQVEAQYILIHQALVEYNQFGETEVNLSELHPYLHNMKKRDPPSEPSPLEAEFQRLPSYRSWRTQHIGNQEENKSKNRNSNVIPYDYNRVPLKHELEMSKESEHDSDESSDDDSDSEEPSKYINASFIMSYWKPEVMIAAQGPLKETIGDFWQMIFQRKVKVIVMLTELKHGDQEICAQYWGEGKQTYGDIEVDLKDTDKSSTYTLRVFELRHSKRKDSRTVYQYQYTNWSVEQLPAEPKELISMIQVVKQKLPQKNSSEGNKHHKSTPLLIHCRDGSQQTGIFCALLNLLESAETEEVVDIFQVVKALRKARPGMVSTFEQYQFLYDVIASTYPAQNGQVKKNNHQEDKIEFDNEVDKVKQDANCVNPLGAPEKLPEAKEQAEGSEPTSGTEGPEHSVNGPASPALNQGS

Biological target: T1, protein associated with Toll‐like receptor 4 (PRAT4A), as used in the Biacore binding studies (UniProt Q9BT09)
T1 sequence: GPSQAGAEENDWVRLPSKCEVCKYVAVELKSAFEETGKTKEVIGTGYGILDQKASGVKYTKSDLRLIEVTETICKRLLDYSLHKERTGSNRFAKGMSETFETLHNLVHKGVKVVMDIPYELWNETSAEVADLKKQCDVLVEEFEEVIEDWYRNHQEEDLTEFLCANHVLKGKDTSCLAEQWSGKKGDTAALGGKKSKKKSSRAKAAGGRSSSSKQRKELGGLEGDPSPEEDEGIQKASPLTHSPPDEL
Assay: SPR; Biacore system; who was immobilised and the conditions not given; told only in the discussion; both purified

binding: no binding
Substance: soluble cytoplasmic tail of CD45 (from UniProt P08575 599-1306) (domain or fragment)
